Data on one molecule can be found in patent US20150299298A1 (TRELLIS BIOSCIENCE, published 2015).

Protein sequences, listed by entry. Tags and fused reporters are not part of them. Residues count along the entry.
UniProt P02769, residues 25-607: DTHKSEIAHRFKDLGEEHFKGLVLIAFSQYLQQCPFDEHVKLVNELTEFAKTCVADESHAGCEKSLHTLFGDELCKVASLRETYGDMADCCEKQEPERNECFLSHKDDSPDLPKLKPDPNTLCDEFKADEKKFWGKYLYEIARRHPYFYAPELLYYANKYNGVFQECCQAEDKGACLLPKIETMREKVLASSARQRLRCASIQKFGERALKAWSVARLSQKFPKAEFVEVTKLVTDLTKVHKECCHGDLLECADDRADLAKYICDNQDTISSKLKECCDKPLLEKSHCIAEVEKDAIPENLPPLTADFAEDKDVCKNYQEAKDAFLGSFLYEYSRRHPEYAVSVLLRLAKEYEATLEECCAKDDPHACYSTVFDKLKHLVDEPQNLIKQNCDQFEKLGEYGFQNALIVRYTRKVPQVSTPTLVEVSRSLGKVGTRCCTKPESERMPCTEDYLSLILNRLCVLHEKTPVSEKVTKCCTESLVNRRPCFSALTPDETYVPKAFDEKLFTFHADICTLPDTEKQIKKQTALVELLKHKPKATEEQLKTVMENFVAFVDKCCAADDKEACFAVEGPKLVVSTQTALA

No constants are given. Whether binding was seen depends on the method and setting.

In the assay the target is BSA (UniProt P02769). Briefly: ELISA on plate-coated antigen, OD 450 nm against TRL1330 [nM]. (ELISA stands for enzyme-linked immunosorbent assay.)

B1: TRL1330 (antibody, V domains shown)
VH: QVQLVESGTEVKNPGASVKVSCTASGYKFDEYGVSWVRQSPGQGLEWMGWISVYNGKTNYSQNFQGRLTLTTETSTDTAYMELTSLRPDDTAVYYCATDKNWFDPWGPGTLVTVSS
VL: DIVLTQSPSASGSPGQSITISCTGTNTDYNYVSWYQHHPGKAPKVIIYDVKKRPSGVPSRFSGSRSGNTATLTVSGLQTEDEADYYCVSYADNNHYVFGSGTKVTVL
Regarding B1, the binding entry is recorded as “no binding (tested: about 20 nM)”.
